Experimental data published in paper PMC11955556.
No constants are given. Whether binding was seen depends on the method and setting. In cells and extracts the contact can be indirect. Some binding calls cover weakened binding; strength is not graded here. For part of these data: Tags and fused reporters may be left off the sequences shown.

The chains behind the UniProt entries cited, without tags or fusion partners.
UniProt O60825: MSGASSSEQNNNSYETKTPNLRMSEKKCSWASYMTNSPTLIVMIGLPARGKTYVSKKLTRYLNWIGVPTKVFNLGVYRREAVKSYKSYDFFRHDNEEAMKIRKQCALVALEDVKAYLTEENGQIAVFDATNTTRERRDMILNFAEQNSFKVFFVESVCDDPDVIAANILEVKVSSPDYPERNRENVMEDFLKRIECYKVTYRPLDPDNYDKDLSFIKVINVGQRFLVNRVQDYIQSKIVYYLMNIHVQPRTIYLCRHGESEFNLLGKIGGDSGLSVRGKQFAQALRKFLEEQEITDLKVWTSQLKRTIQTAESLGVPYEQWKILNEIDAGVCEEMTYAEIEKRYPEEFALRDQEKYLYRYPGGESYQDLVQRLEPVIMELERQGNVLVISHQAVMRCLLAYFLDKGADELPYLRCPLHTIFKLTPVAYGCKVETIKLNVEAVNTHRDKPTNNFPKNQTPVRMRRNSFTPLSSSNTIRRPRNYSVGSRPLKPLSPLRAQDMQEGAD
UniProt Q9P1W9: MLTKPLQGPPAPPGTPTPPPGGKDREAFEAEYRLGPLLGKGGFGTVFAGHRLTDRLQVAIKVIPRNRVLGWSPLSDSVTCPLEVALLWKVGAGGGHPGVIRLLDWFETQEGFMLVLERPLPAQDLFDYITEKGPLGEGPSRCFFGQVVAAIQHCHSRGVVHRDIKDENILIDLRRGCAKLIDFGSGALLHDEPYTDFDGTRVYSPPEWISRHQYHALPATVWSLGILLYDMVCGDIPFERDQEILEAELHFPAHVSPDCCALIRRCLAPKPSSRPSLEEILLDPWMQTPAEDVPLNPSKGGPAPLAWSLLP

Experiments:
Assay in all cases: co-IP; HEK293T cells co-transfected with Flag-Pim2 and an HA-tagged enzyme; RIPA lysate; immunoprecipitation with anti-HA and anti-Flag antibodies on protein A/G beads; Western blot
[1] = biological target: T1, HA-tagged PGK1 (UniProt P00558)
T1 sequence: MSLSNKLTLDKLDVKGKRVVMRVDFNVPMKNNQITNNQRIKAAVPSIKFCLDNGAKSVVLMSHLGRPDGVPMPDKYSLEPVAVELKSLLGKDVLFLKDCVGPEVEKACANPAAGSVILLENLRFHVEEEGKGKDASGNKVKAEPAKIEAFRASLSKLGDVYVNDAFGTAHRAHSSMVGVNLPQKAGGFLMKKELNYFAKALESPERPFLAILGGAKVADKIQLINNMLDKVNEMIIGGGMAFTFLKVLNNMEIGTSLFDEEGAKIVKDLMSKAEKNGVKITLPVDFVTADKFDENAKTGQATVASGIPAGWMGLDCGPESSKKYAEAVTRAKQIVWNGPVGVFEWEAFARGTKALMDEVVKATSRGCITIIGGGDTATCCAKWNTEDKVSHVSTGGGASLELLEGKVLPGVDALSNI

[2] = biological target: T2, HA-tagged PDHA1 (UniProt P08559)
T2 sequence: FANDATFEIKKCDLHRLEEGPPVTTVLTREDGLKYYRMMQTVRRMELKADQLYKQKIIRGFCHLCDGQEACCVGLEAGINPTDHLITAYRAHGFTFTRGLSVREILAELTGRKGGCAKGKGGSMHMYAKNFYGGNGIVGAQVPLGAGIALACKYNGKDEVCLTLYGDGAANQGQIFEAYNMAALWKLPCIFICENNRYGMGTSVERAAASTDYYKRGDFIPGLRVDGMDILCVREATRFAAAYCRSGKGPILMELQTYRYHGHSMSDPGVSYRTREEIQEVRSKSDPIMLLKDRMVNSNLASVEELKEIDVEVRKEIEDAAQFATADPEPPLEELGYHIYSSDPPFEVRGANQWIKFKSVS

[3] = biological target: HA-tagged PFKFB2 (UniProt O60825)

Measured: binding

Flag-tagged Pim2 (proviral integration of Moloney virus 2 kinase) (from UniProt Q9P1W9 1-311) (enzyme)
binds: all assays above
